Results: PubChem BioAssay AID485314 (National Center for Advancing Translational Sciences (NCATS), 2010)
Screen size: about 340,000 compounds; about 4,500 (1.3%) were called active. Inconclusive results, whose numbers are uncertain, are shown with a selection of clear calls. Calls come from the whole dose curve; as a rule, active = well fitted inhibition curve with a large enough effect; inconclusive = small, poorly fitted or top-dose-only effect, or another doubt; inactive = no such curve, though single readings can be large or run the other way. A potency beside an inconclusive call is a rough fit, not a confirmed value.

target: DNA polymerase beta (Homo sapiens) (UniProt P06746); assay: qHTS Assay for Inhibitors of DNA Polymerase Beta; details: Pol beta primer extension/strand displacement, fluorescence kinetic; activity change, negative = inhibition: at 114 µM (top of the series)
How it was run: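 Homogeneous kinetic assay of primer extension and strand displacement by 10 nM Pol beta, preincubated 15 min at room temperature with compound before 50 nM substrate (final) was added. Read at 0 and 10 min; four-parameter Hill fit.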
% is set by controls: 0 for no effect and ±100 for the full control effect; potency is the fitted concentration of half-maximal effect.

Structure (SMILES)	Potency	activity change, negative = inhibition
COc1ccccc1N1CCN(C(=O)c2ccc3c(c2)NC(=O)C(CSCc2ccccc2C)N3)CC1 (stereo not given)	inconclusive: 0.1 µM [inhibitor, full curve, poor fit]	–
CCc1nnc(NC(=O)CSc2nc3c(c(=O)n2-c2ccccc2OC)SCC3)s1	inconclusive: 22.4 µM [inhibitor, full curve, poor fit]	–
O=S(=O)(NCCS(=O)(=O)N1CCN(c2ccccc2)CC1)c1ccc(Br)cc1	–	inactive: 38.9%
CC1=C(C(=O)OCC(Br)(Br)Br)C(c2ccc(Br)cc2)NC(=O)N1CCCC(=O)O (stereo not given)	–	inactive: 12.6%
CCCCN1CC(O)=C(c2nc(-c3ccc(Cl)cc3)cs2)C1=N	inconclusive: 4.47 µM [inhibitor, full curve]	–
CCc1cccc(CC)c1NC(=O)CN1CCN(S(=O)(=O)c2ccccc2)CC1	inconclusive: 12.6 µM [inhibitor, partial curve, poor fit]	–
Nc1ccc2c3c(cccc13)C(=O)NC2=O	inconclusive: 39.8 µM [inhibitor, partial curve]	–
COC(=O)C(C)Oc1ccc(Cc2ncc(C(F)(F)F)cc2Cl)cc1 (stereo not given)	–	inactive: 1.41%
O=C(Oc1c(Br)cc(Br)c2cccnc12)N1CCCCC1	–	inactive: 6.84%
CCOc1ccc(S(=O)(=O)N(CC(=O)NCc2cccnc2)c2ccc(F)cc2)cc1	–	inactive: 5.29%
O=C(Nc1ccc2c(c1)oc1ccccc12)c1ccc(Br)o1	inconclusive: 20 µM [inhibitor, full curve]	–
Nc1nc(Cl)nc2c1ncn2[C@@H]1O[C@H](COP(=O)(O)OP(=O)(O)OP(=O)(O)O)[C@H](O)[C@H]1O	–	inactive: -1.79% [at 57.1 µM]
COc1ccc(S(=O)(=O)N2CCCCC2)cc1NC(=O)c1cc(C)on1	inconclusive: 89.1 µM [inhibitor, single point]	–
COc1ccc(-c2cc3c(=O)n(CC(=O)Nc4cccc(Cl)c4)ncn3n2)cc1	inconclusive: 0.251 µM [inhibitor, full curve, poor fit]	–
O=C(CN1C(=O)NC(Cc2c[nH]c3ccccc23)C1=O)NCCc1ccc(F)cc1 (stereo not given)	inconclusive: 0.112 µM [inhibitor, full curve, poor fit]	–
CCC(=O)N1CCc2cc(Br)cc(S(=O)(=O)NCCCN(C)Cc3ccccc3)c21	inconclusive: 100 µM [inhibitor, single point]	–
Cc1ccc2c(c1)C(O)(CC(=O)c1ccc(C)s1)C(=O)N2 (stereo not given)	–	inactive: -0.416%
COc1ccc2c(C)c(CC(=O)N3CCN(C(=O)C4COc5ccccc5O4)CC3)c(=O)oc2c1C (stereo not given)	–	inactive: -16.8%
CC(=C\C(=O)O)/C(=C/c1ccco1)C(=O)O	inconclusive: 17.8 µM [inhibitor, partial curve]	–
Cc1nc(N2CCN(C)CC2)c2cc(-c3ccccc3)sc2n1	inconclusive: 10 µM [inhibitor, single point]	–
CCOc1ccc(CNC(=O)C2Cc3ccccc3N2C(=O)CC)cc1OC (stereo not given)	–	inactive: 14.2%
CCOC(=O)c1c(-c2ccccc2)oc2ccc(NS(=O)(=O)c3cc(C)c(C)cc3C)cc12	inconclusive: 0.316 µM [inhibitor, partial curve]	–
O=C1CC(c2ccccc2)Sc2nc3ccccc3n21 (stereo not given)	–	inactive: -2.55%
CC(=O)c1cccc(NC(=O)c2oc3c(c2C)-c2nn(Cc4ccc(Cl)cc4)cc2CC3)c1	–	inactive: 2.82%

Structure (SMILES)	Potency	activity change, negative = inhibition
Cc1ccc(CNC(=O)C2CC(=O)OC23CCCC3)c(C)c1 (stereo not given)	inconclusive: 25.1 µM [inhibitor, full curve]	–
Cc1cc(NC(=O)CSc2nc(-c3ccco3)cc(C(F)(F)F)n2)n(-c2ccccc2)n1	inconclusive: 0.251 µM [inhibitor, full curve, poor fit]	–
CCCNC(=O)C1CC(=O)N(c2ccc(OCc3ccc(Cl)cc3)cc2)C1 (stereo not given)	inconclusive: 89.1 µM [inhibitor, single point]	–
O=C1NC(=S)S/C1=C/c1ccc(OC(=O)c2ccco2)cc1	inconclusive: 39.8 µM [inhibitor, single point]	–
Cc1cccc(N2CCN(S(=O)(=O)c3ccc4[nH]c(=O)c(=O)[nH]c4c3)CC2C)c1 (stereo not given)	active: 25.1 µM	–
Cc1ccc(S(=O)(=O)Nc2cccnc2Oc2ccc(Cl)cc2)cc1	inconclusive: 89.1 µM [inhibitor, single point]	–
COc1ccccc1CNC(=O)c1ccc(CS(=O)(=O)c2ccc(C)cc2)o1	active: 89.1 µM	–
Cc1ccc(C(=O)CSc2nc(-c3ccccc3)nc3c2CCCC3)cc1	–	inactive: 14.3%
O=C1NC(=NCc2ccccc2)S/C1=C\c1ccccc1	inconclusive: 17.8 µM [inhibitor, full curve]	–
CCOC(=O)c1sc(=S)n(-c2ccc(OC)cc2)c1C	–	inactive: 1.1%
N#C/C(=C\c1ccc(-c2ccc(C(=O)O)cc2)o1)C(=O)Nc1ccccc1C(=O)O	–	inconclusive: -113% [inhibitor]
COc1ccc(OC)c(NC(=O)CS(=O)(=O)Cc2nc(-c3ccccc3C)oc2C)c1	inconclusive: 89.1 µM [inhibitor, single point]	–
COc1cc(Nc2nc(SCC(=O)c3ccc(Br)cc3)nc3ccccc23)cc(OC)c1	inconclusive: 25.1 µM [inhibitor, partial curve]	–
C=CCN1c2ccccc2[C@]23C[C@@H](C(=O)OC)N(C(=O)NCCC)C2=NC(C(=O)OC)=C(C(=O)OC)[C@H]13	inconclusive: 89.1 µM [inhibitor, single point]	–
Cc1ccc(Cc2c(C)nc3nc(SCC(=O)NC4CCC(C)CC4)nn3c2C)cc1 (stereo not given)	–	inactive: 5.98%
Cc1noc(NS(=O)(=O)c2ccc(NC(=O)CSc3nnc4c(n3)[nH]c3ccccc34)cc2)c1C	inconclusive: 89.1 µM [inhibitor, single point]	–
CCc1nnc(NC(=O)NC(C)(C)C)s1	–	inactive: 2.18%
O=C(Nc1ccc(Cl)c(Cl)c1)N1CCSC1c1ccco1 (stereo not given)	–	inactive: 6.01%
Cc1ccnc2nc(C(=O)Nc3nnc(-c4ccc(Cl)cc4)o3)nn12	inconclusive: 44.7 µM [inhibitor, partial curve, poor fit]	–
Cc1cc(C)cc(NC(=O)C(=O)NCCCN2CCOCC2)c1	inconclusive: 79.4 µM [inhibitor, single point]	–
CC(=O)Nc1ccc(NC(=O)CSc2nnc(C)c(=O)n2N)cc1	–	inactive: 1.51%
N#Cc1c2nc3ccccc3nc2n2cc(NC(=O)c3ccc(F)cc3)ccc12	active: 6.31 µM	–
CCOc1ccccc1CNC(=O)c1cn(-c2ccc(OC)cc2)c(=O)c2ccccc12	inconclusive: 28.2 µM [inhibitor, single point]	–
Cc1cccc(NC(=O)CSc2nc(=O)n(Cc3ccco3)c3c2CCC3)c1C	inconclusive: 89.1 µM [inhibitor, single point]	–

Structure (SMILES)	Potency	activity change, negative = inhibition
CN(C)CCCNc1oc(/C=C/c2cccs2)nc1S(=O)(=O)c1ccccc1	inconclusive: 0.141 µM [inhibitor, full curve, poor fit]	–
COc1ccc(CCNC(=O)c2cc3c(s2)-c2c(C)cccc2OC3)c(OC)c1	–	inactive: 7.58%
Cc1cccc(N2CC(c3nc4ccccc4n3CCC3CCCCC3)CC2=O)c1 (stereo not given)	–	inactive: 2.32%
CC(C)OC(=O)c1cn(-c2ccccc2)nc1-c1ccc2c(c1)OCCO2	inconclusive: 39.8 µM [inhibitor, single point]	–
O=Cc1ccc(-c2ccc([N+](=O)[O-])cc2Cl)o1	inconclusive: 11.2 µM [inhibitor, full curve]	–
COc1cc(/C=N/NC(=O)CSc2ccccn2)ccc1O	inconclusive: 70.8 µM [inhibitor, single point]	–
S=C(NCc1ccco1)Nc1cc(-c2ccccc2)[nH]n1	–	inactive: -0.656%
N#CC1=C(N)Oc2n[nH]c(-c3cccs3)c2C1c1cccs1 (stereo not given)	–	inactive: -6.71%
COCCCNC(=O)c1ccc(Cn2c(=O)c3ccccc3n(CC(=O)Nc3ccc(C)cc3C)c2=O)cc1	–	inactive: -9.48%
Cc1nc(Cl)c(C(=O)NCCC(C)C)c(C)c1[N+](=O)[O-]	inconclusive: 89.1 µM [inhibitor, single point]	–
Cc1cc(C)cc(Nc2nc3ccccc3n3cnnc23)c1	–	inactive: -17.1%
C=CCN1C(=O)c2cccc3c(Br)ccc(c23)C1=O	inconclusive: 100 µM [inhibitor, single point]	–
Cc1ccc(Cl)cc1NC(=O)CSc1sc2c(O)cc(=O)[nH]c2c1C#N	inconclusive: 25.1 µM [inhibitor, partial curve]	–
CC/C(=N\n1nnnc1Nc1ccccc1)c1ccccc1	inconclusive: 39.8 µM [inhibitor, single point]	–
CCCN(CCC)S(=O)(=O)c1ccc(NC(=O)COc2ccccc2)cc1	inconclusive: 25.1 µM [inhibitor, partial curve]	–
CCC(=O)Nc1ccccc1-c1nc2ccccc2n(C(C)C(=O)Nc2cccc(Cl)c2C)c1=O (stereo not given)	inconclusive: 22.4 µM [inhibitor, full curve]	–
COC(=O)c1cc(Cl)c(NC(=O)Cc2ccccc2)cc1OC	inconclusive: 0.631 µM [inhibitor, full curve, poor fit]	–
Cc1cc(NS(=O)(=O)c2ccc(Nc3nc(-c4sc(NC(=O)c5ccccc5)nc4C)cs3)cc2)no1	inconclusive: 20 µM [inhibitor, full curve, poor fit]	–
CC(NC(=O)c1c2c(nc3ccccc13)C(=O)N(C1CCCCC1)C2)c1ccccc1 (stereo not given)	–	inactive: 0.137%
Cc1ccc(S(=O)(=O)N2CCN(Cc3ccccn3)CC2)cc1	inconclusive: 63.1 µM [inhibitor, single point]	–
Cc1nnc(NC(=O)CSc2nnc3c(n2)[nH]c2ccccc23)s1	–	inactive: 13.6%
Cc1ccccc1CN1C(=O)CS/C1=N/N=C/c1ccco1	–	inconclusive: -45.9% [inhibitor]

Pulled one by one from above, five records:
Structure (SMILES)	Potency	activity change, negative = inhibition
Cc1ccccc1CN1C(=O)CS/C1=N/N=C/c1ccco1	–	inconclusive: -45.9% [inhibitor]
Cc1cccc(N2CC(c3nc4ccccc4n3CCC3CCCCC3)CC2=O)c1 (stereo not given)	–	inactive: 2.32%
CC(NC(=O)c1c2c(nc3ccccc13)C(=O)N(C1CCCCC1)C2)c1ccccc1 (stereo not given)	–	inactive: 0.137%
COC(=O)c1cc(Cl)c(NC(=O)Cc2ccccc2)cc1OC	inconclusive: 0.631 µM [inhibitor, full curve, poor fit]	–
COc1cc(/C=N/NC(=O)CSc2ccccn2)ccc1O	inconclusive: 70.8 µM [inhibitor, single point]	–
